For assay [1], the target named is T1, N-Mut: Δ21-121 EMCN with the two N-glycosylation sites mutated (N127A and N131A), Myc-tagged (mouse) (UniProt Q9R0H2).
T1 sequence: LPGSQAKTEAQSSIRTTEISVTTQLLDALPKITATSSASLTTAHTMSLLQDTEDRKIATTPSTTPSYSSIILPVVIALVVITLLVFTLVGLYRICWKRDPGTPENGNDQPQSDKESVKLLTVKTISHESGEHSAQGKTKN
As to the kind of experiment: co-IP; membrane proteins of HRECs (endogenous hEMCN knocked down by siRNA) expressing Myc-tagged mEMCN constructs; solubilisation buffer 50 mM Tris-HCl, 100 mM NaCl, 5 mM EDTA, 0.5% Triton-X 100, 0.5% NP-40, pH 7.5; IP with mouse anti-Myc overnight at 4 °C, mouse IgG as control; blot for VEGFR2 and Myc; VEGFR2 intensity normalised to Myc on beads and compared to FL mEMCN; FL EMCN also in CRISPR control and COSMC knockout HRECs (Figure 4D).

The chains behind the UniProt entries cited, without tags or fusion partners. Residues count along the entry.
UniProt P35968, residues 20-1356: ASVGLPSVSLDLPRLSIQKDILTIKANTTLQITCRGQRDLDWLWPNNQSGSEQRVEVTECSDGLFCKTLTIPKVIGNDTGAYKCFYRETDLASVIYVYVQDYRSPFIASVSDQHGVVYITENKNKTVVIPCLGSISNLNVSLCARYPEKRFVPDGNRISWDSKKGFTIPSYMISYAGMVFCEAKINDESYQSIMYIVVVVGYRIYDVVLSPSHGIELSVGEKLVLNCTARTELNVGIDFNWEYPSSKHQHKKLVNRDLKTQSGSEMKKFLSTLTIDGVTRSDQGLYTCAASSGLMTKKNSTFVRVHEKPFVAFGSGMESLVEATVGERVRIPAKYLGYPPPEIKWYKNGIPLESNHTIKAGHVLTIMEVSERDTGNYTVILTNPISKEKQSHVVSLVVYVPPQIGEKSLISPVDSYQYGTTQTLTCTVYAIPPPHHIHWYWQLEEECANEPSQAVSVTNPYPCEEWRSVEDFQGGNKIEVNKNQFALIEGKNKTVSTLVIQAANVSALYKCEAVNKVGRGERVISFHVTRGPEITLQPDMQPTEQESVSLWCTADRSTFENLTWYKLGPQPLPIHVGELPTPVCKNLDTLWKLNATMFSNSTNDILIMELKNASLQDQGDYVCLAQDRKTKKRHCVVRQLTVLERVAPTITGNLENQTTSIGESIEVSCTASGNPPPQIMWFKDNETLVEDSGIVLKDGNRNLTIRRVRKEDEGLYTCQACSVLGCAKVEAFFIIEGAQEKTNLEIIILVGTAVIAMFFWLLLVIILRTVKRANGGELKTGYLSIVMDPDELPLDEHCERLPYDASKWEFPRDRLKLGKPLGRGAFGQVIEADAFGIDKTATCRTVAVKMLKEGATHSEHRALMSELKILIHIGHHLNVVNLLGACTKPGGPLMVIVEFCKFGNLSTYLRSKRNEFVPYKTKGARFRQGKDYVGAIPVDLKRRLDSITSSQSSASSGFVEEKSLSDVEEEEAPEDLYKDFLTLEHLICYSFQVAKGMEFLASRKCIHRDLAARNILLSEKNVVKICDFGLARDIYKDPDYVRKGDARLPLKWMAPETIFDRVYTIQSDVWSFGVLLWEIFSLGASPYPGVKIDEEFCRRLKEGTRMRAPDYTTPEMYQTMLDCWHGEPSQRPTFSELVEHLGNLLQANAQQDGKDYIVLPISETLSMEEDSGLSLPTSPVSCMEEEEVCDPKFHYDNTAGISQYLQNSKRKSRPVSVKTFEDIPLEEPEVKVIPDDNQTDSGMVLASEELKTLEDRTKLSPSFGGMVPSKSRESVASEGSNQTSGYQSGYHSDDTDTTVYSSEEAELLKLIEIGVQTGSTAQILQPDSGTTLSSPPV

Assay [2] has as its target T2, mouse full-length endomucin (FL EMCN), Myc- and mCherry-tagged (mouse) (UniProt Q9R0H2).
T2 sequence: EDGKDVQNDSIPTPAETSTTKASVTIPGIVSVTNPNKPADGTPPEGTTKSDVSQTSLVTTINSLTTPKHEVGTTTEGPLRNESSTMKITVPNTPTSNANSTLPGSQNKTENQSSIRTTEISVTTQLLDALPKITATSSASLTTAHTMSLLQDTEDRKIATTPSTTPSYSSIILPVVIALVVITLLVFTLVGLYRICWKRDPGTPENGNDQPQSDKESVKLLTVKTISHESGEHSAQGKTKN
Described as above.

Results are given in words; binding and its absence hold for the method and conditions named. Binding seen in cells or lysates may run through a third protein. Some results given as binding are weak or reduced against the parent protein; the word gives no strength. Tags and fused reporters may be left off the sequences shown.

As to “vascular endothelial growth factor receptor 2 (VEGFR2) (from UniProt P35968 20-1356)”, the binding result in assay [1] is recorded as “no binding”; in assay [2], “binds”.

These data come from paper PMC7349057.
